# Reference: PubChem BioAssay AID1224830 (NIAID, 2016)
# Aim: 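Regulators of TLR4 signalling towards TNF-alpha in macrophage-like cells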 (primary screen)
# System: human THP-1 monocytic leukaemia cells, TNF dual-luciferase reporter clone, PMA-differentiated to macrophage-like cells
# Reagents: siRNA pool against human genes, 50 nM
# Duration: LPS for 4 h, given about 3 days after siRNA transfection
# Challenge: bacterial LPS (TLR4 ligand), 10 ng/ml
# Detection: 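TNF firefly reporter luminescence divided by renilla, normalised to the plate median, then turned into a robust z-score for each replicate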
# Direction: TNF reporter robust z-score: higher = stronger TNF reporter response to LPS
# Call rule: 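Each well counts as active if its z-score is over 2.8 or under -1.5; controls are left without a call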
# The deposit covers about 18,000 reagents; shown is an unselected part. About 2,900 of them (16%) count as active. 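Calls are made per well; low scores hint the gene aids the LPS response, high scores that it dampens it.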 Entries without a mark were called inactive. Repeated entries: four replicate wells of each siRNA pool.
gene knocked down,TNF reporter robust z-score
ERCC3,1.76
ERCC3,2.58
ERCC3,1.39
ERCC3,1.14
PHF1,-0.46
PHF1,0.92
PHF1,-0.63
PHF1,-0.02
DMTF1,-0.12
DMTF1,0.19
DMTF1,-0.86
DMTF1,0.82
BTAF1,2.15
BTAF1,2.85 (active)
BTAF1,1.67
BTAF1,2.4
PSTPIP1,0.52
PSTPIP1,1.03
PSTPIP1,0.79
PSTPIP1,0.81
DTX4,1.89
DTX4,1.44
DTX4,1.73
DTX4,1.27
FAAP24,-0.59
FAAP24,0.1
FAAP24,-0.15
FAAP24,0.17
DDX55,-0.05
DDX55,0.71
DDX55,0.58
DDX55,1.24
TNFAIP6,-0.01
TNFAIP6,-0.46
TNFAIP6,-0.71
TNFAIP6,0.11
PTGIS,1.92
PTGIS,0.98
PTGIS,1.35
PTGIS,2.27
OR13A1,-0.47
OR13A1,-0.51
OR13A1,-0.5
OR13A1,0.08
GABRA6,-1
GABRA6,-0.91
GABRA6,-0.52
GABRA6,-0.51
FAM76B,-1.08
FAM76B,-1.45
FAM76B,-1.31
FAM76B,-0.84
WDR76,0.57
WDR76,1.37
WDR76,0.79
WDR76,0.75
NDUFA2,-1.35
NDUFA2,-1.05
NDUFA2,-0.72
NDUFA2,0

Next part, starting with the last 16 of the part before.
gene knocked down,TNF reporter robust z-score
GABRA6,-1
GABRA6,-0.91
GABRA6,-0.52
GABRA6,-0.51
FAM76B,-1.08
FAM76B,-1.45
FAM76B,-1.31
FAM76B,-0.84
WDR76,0.57
WDR76,1.37
WDR76,0.79
WDR76,0.75
NDUFA2,-1.35
NDUFA2,-1.05
NDUFA2,-0.72
NDUFA2,0
H4C13,-0.01
H4C13,-0.64
H4C13,-0.2
H4C13,-1.01
CRYBG3,-0.51
CRYBG3,-0.65
CRYBG3,0.41
CRYBG3,0.9
GORAB,0.72
GORAB,1.34
GORAB,0.98
GORAB,0.99
ZNF324B,0.59
ZNF324B,-0.27
ZNF324B,0.11
ZNF324B,-0.14
ZFP28,0.75
ZFP28,-0.35
ZFP28,-0.5
ZFP28,0.37
YOD1,-1.12
YOD1,-0.08
YOD1,-1.57 (active)
YOD1,-1.41
SLC29A1,-1.8 (active)
SLC29A1,-1.08
SLC29A1,-1.47
SLC29A1,-0.82
ADH7,1.93
ADH7,1.49
ADH7,-0.38
ADH7,3.23 (active)
RRP7A,0.12
RRP7A,-0.24
RRP7A,-0.48
RRP7A,-0.27
MYADM,-0.17
MYADM,-0.51
MYADM,1.04
MYADM,1.71
IKZF4,0.44
IKZF4,0.33
IKZF4,0.36
IKZF4,0.76
PWWP2B,0.09
PWWP2B,-0.07
PWWP2B,-0.91
PWWP2B,-0.92
TLR1,1.02
TLR1,0.91
TLR1,0.21
TLR1,0.61
CRY2,-1.7 (active)
CRY2,0.49
CRY2,0.57
CRY2,-0.33
CFAP70,-0.8
CFAP70,-0.65
CFAP70,0.81
CFAP70,0.92
ASGR1,-1.75 (active)
ASGR1,-1.47
ASGR1,-1.26
ASGR1,-0.45
OR9A4,-0.7
OR9A4,-0.38
OR9A4,-0.08
OR9A4,-0.15
PFAS,-1.23
PFAS,0.49
PFAS,0.17
PFAS,0.57
GRK3,-0.49
GRK3,1.25
GRK3,0.56
GRK3,0.52
TUBGCP5,0.24
TUBGCP5,0.49
TUBGCP5,-0.54
TUBGCP5,-0.16
